# Cleaved PARP in drug-treated melanoma cells

Data from the primary screen of doi:10.1371/journal.pone.0140310, rounded.

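The test systems are human melanoma cell lines, treated with a pair of drugs for 72 h and then stained and imaged. The read-out is the fraction of cleaved-PARP-positive nuclei, in % of that fraction in the DMSO control; 200 means twice the control level of this apoptosis marker. Concentrations were fixed for each drug; these are the higher of two levels. These are primary screening values without error estimates. The marker varies much from line to line, for technical or biological reasons.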 Only some of the drugs and lines screened are listed, without regard to their results. A dash means that no value is listed here.

Compounds and concentrations:
A-769662, 10000 nM: N#Cc1c(O)c2c(-c3ccc(-c4ccccc4O)cc3)csc2[nH]c1=O
cediranib, 2000 nM: COc1cc2c(Oc3ccc4[nH]c(C)cc4c3F)ncnc2cc1OCCCN1CCCC1
darinaparsin, 2000 nM: C[As](C)SC[C@H](NC(=O)CC[C@H](N)C(=O)O)C(=O)NCC(=O)O
veliparib, 7000 nM: C[C@]1(c2nc3c(C(N)=O)cccc3[nH]2)CCCN1
KU-55933, 5000 nM: O=c1cc(-c2cccc3c2Sc2ccccc2S3)oc(N2CCOCC2)c1

Cell line,A-769662 + cediranib,A-769662 + darinaparsin,cediranib + KU-55933,darinaparsin + KU-55933,veliparib + KU-55933,veliparib + darinaparsin,veliparib + A-769662,cediranib + darinaparsin
WM1745,115,203,113,98.6,113,109,91.6,168
LOX IMVI,92.4,102,97.2,179,68.4,109,89.1,143
LB2518-MEL,66.7,89.9,-,71.4,-,72.1,149,111
SK-MEL-5,60.6,148,178,113,77.5,172,126,87.7
COLO 829,35.0,125,137,159,198,83.1,38.7,119
A2058,58.8,185,93.2,248,188,220,125,184
MZ2-MEL,62.3,118,-,42.9,-,88.1,70.4,41.2
MeWo,81.7,230,75.1,87.1,79.2,208,169,180
A101D,86.5,115,119,59.6,107,180,75.2,46.7
G-361,71.6,92.0,62.1,122,74.0,57.0,47.9,32.1
UACC-62,43.9,73.5,116,141,131,151,97.7,81.5
WM115,50.4,115,133,76.2,107,78.4,207,31.4
WM1716,30.6,84.4,112,131,139,84.0,118,108
RPMI-7951,78.3,100,206,76.4,278,29.3,93.0,244
UACC-257,42.5,38.0,38.6,13.3,21.6,98.8,25.9,107
WM451Lu,41.1,228,194,263,57.1,107,170,135
COLO 792,52.0,93.4,140,68.8,92.8,109,63.5,55.9
WM3526,127,96.4,85.5,135,181,365,79.4,119
WM3619,131,127,112,155,275,108,116,69.9
501mel,59.5,347,-,114,-,-,118,-
C32,188,105,92.0,97.8,97.2,282,102,27.0
IST-MEL1,86.5,106,120,136,73.0,105,185,51.1
SK-MEL-2,56.5,107,50.3,87.0,78.0,220,152,17.3
MEL-HO,55.4,62.9,24.9,111,52.8,37.2,22.3,50.7
IPC-298,92.0,65.0,62.6,249,179,102,82.1,26.7
COLO 800,44.1,75.2,51.2,84.6,30.9,127,55.3,58.1
RVH-421,275,60.0,119,118,293,151,29.7,88.9
SK-MEL-30,156,132,91.4,127,176,98.9,47.5,138
SK-MEL-28,24.5,102,107,216,83.5,169,48.6,145
A375,55.9,86.4,46.7,160,37.1,109,38.3,-

The last 3 entries again:

Cell line	A-769662 + cediranib	A-769662 + darinaparsin	cediranib + KU-55933	darinaparsin + KU-55933	veliparib + KU-55933	veliparib + darinaparsin	veliparib + A-769662	cediranib + darinaparsin
SK-MEL-30	156	132	91.4	127	176	98.9	47.5	138
SK-MEL-28	24.5	102	107	216	83.5	169	48.6	145
A375	55.9	86.4	46.7	160	37.1	109	38.3	-